Results from patent publication US11396552 (DIABETES FREE, dated 2022).
Results are given in words; binding and its absence hold for the method and conditions named. Some entries that bind do so weakly or less than the wild type.

By UniProt entry, the sequences of proteins in these tests, tags left out. Residues count along the entry.
UniProt P25942, residues 21-193: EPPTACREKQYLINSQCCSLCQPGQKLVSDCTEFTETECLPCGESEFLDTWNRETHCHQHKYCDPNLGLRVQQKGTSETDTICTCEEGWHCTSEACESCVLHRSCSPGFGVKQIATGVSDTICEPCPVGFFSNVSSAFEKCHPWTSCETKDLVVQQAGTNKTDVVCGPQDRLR

Assays:
recombinant CD40 [1] = biological target: T1, recombinant CD40 (human, UniProt P25942 21-193, limits assumed); test: CD40 ELISA
T1 construct: the ELISA method itself names no species or construct; also called antigen CD40

recombinant CD40 [2] = biological target: T1, recombinant CD40; test: CD40 ELISA (Table 2)
recombinant CD40 [3] = biological target: T1, recombinant CD40; test: CD40 ELISA, relative binding value

Binder	binding (recombinant CD40 [1])	binding (recombinant CD40 [2])	binding (recombinant CD40 [3])
PG102_Var5 (antibody, human IgG4 S228P, kappa, V domains shown, IgG4pro(deltaK)/kappa; also called FFP104_Var5) VH: QVQLQESGPGLVKPSETLSITCTVSGFSLSRYSVYWIRQPPGKGPEWMGMMWGGGSTDYSTSLKSRLTISKDTSKSQVSLKMSSLTAADTAVYYCVRTDGDYWGQGTLVTVSS VL: ELQLTQSPLSLPVTLGQPASISCRSSQSLASSQGNTYLHWYLQRPGQSPRLLIYKVSNRFSGVPDRFSGSGSGTDFTLKISRVEAEDVGVYYCSQSTHVPWTFGGGTKLEIKR	binds	binds	binds
PG102_Var8 (antibody, human IgG4 S228P, kappa, V domains shown, IgG4pro(deltaK)/kappa; also called FFP104_Var8) VH: QVQLVESGGGLVKPGGSLRLSCAVSGFSLSRYSVYWIRQAPGKGLEWMGMMWGGGSTDYSTSVKGRFTISKDNAKTSVYLQMSSLRAEDTAVYYCVRTDGDYWGQGTLVTVSS VL: ELQLTQSPLSLPVTLGQPASISCRSSQSLASSQGNTYLHWYLQRPGQSPRLLIYKVSNRFSGVPDRFSGSGSGTDFTLKISRVEAEDVGVYYCSQSTHVPWTFGGGTKLEIKR		binds	binds
PG102_Var7 (antibody, human IgG4 S228P, kappa, V domains shown, IgG4pro(deltaK)/kappa; also called FFP104_Var7) VH: QVQLQESGPGLVKPSQTLSLTCTVSGFSLSRYSVYWVRQPPGKGLEWIGMMWGGGSTDYNPSLKSRLTISKDTSKSQVSLKLSSLTAADTAVYYCVRTDGDYWGQGTLVTVSS VL: ELQLTQSPLSLPVTLGQPASISCRSSQSLASSQGNTYLHWYLQRPGQSPRLLIYKVSNRFSGVPDRFSGSGSGTDFTLKISRVEAEDVGVYYCSQSTHVPWTFGGGTKLEIKR		binds	binds
PG102_Var1 (antibody, human IgG4 S228P, kappa, V domains shown, IgG4pro(deltaK)/kappa; also called FFP104_Var1) VH: QVQLQESGPGLVKPSETLSITCTVSGFSLSRYSVYWIRQPPGKGPEWMGMMWGGGSTDYSTSLKSRLTISKDTSKSQVSLKMSSLTAADTAVYYCVRTDGDYWGQGTLVTVSS VL: ELQLTQSPLSLPVTLGQPASISCRSSQSLASSSGNTYLHWYLQRPGQSPRLLIYKVSNRFSGVPDRFSGSGSGTDFTLKISRVEAEDVGVYYCSQSTHVPWTFGGGTKLEIKR	binds	binds	binds
PG102_Var2 (antibody, human IgG4 S228P, kappa, V domains shown, IgG4pro(deltaK)/kappa; also called FFP104_Var2) VH: QVQLQESGPGLVKPSETLSITCTVSGFSLSRYSVYWVRQPPGKGLEWMGMMWGGGSTDYSTSLKSRLTISKDTSKSQVSLKMSSLTAADTAVYYCVRTDGDYWGQGTLVTVSS VL: ELQLTQSPLSLPVTLGQPASISCRSSQSLASSSGNTYLHWYLQRPGQSPRLLIYKVSNRFSGVPDRFSGSGSGTDFTLKISRVEAEDVGVYYCSQSTHVPWTFGGGTKLEIKR	binds	binds	binds

The remaining lines, values ahead:

binding (recombinant CD40 [1])	binding (recombinant CD40 [2])	binding (recombinant CD40 [3])	Binder
	binds	binds	PG102_Var4 (antibody, human IgG4 S228P, kappa, V domains shown, IgG4pro(deltaK)/kappa; also called FFP104_Var4) VH: QVQLVESGGGLVKPGGSLRLSCAVSGFSLSRYSVYWIRQAPGKGLEWMGMMWGGGSTDYSTSVKGRFTISKDNAKTSVYLQMSSLRAEDTAVYYCVRTDGDYWGQGTLVTVSS VL: ELQLTQSPLSLPVTLGQPASISCRSSQSLASSSGNTYLHWYLQRPGQSPRLLIYKVSNRFSGVPDRFSGSGSGTDFTLKISRVEAEDVGVYYCSQSTHVPWTFGGGTKLEIKR
	binds	binds	PG102_Var14 (antibody, human IgG4 S228P, kappa, V domains shown, IgG4pro(deltaK)/kappa; also called FFP104_Var14) VH: QVQLQESGPGLVKPSETLSITCTVSGFSLSRYSVYWVRQPPGKGLEWMGMMWGGGSTDYSTSLKSRLTISKDTSKSQVSLKMSSLTAADTAVYYCVRTDGDYWGQGTLVTVSS VL: DIVMTQSPLSLPVTPGQPASISCRSSQSLASSQGNTYLHWYLQKPGQSPRLLIYKVSNRFSGVPDRFSGSGSGTDFTLKISRVEAEDVGVYYCSQSTHVPWTFGGGTKLEIKR
binds	binds	binds	PG102_Var6 (antibody, human IgG4 S228P, kappa, V domains shown, IgG4pro(deltaK)/kappa; also called FFP104_Var6) VH: QVQLQESGPGLVKPSETLSITCTVSGFSLSRYSVYWVRQPPGKGLEWMGMMWGGGSTDYSTSLKSRLTISKDTSKSQVSLKMSSLTAADTAVYYCVRTDGDYWGQGTLVTVSS VL: ELQLTQSPLSLPVTLGQPASISCRSSQSLASSQGNTYLHWYLQRPGQSPRLLIYKVSNRFSGVPDRFSGSGSGTDFTLKISRVEAEDVGVYYCSQSTHVPWTFGGGTKLEIKR
	binds	binds	PG102_Var13 (antibody, human IgG4 S228P, kappa, V domains shown, IgG4pro(deltaK)/kappa; also called FFP104_Var13) VH: QVQLQESGPGLVKPSETLSITCTVSGFSLSRYSVYWIRQPPGKGPEWMGMMWGGGSTDYSTSLKSRLTISKDTSKSQVSLKMSSLTAADTAVYYCVRTDGDYWGQGTLVTVSS VL: DIVMTQSPLSLPVTPGQPASISCRSSQSLASSQGNTYLHWYLQKPGQSPRLLIYKVSNRFSGVPDRFSGSGSGTDFTLKISRVEAEDVGVYYCSQSTHVPWTFGGGTKLEIKR
	binds	binds	PG102_Var3 (antibody, human IgG4 S228P, kappa, V domains shown, IgG4pro(deltaK)/kappa; also called FFP104_Var3) VH: QVQLQESGPGLVKPSQTLSLTCTVSGFSLSRYSVYWVRQPPGKGLEWIGMMWGGGSTDYNPSLKSRLTISKDTSKSQVSLKLSSLTAADTAVYYCVRTDGDYWGQGTLVTVSS VL: ELQLTQSPLSLPVTLGQPASISCRSSQSLASSSGNTYLHWYLQRPGQSPRLLIYKVSNRFSGVPDRFSGSGSGTDFTLKISRVEAEDVGVYYCSQSTHVPWTFGGGTKLEIKR
	binds	binds	PG102_Var16 (antibody, human IgG4 S228P, kappa, V domains shown, IgG4pro(deltaK)/kappa; also called FFP104_Var16) VH: QVQLVESGGGLVKPGGSLRLSCAVSGFSLSRYSVYWIRQAPGKGLEWMGMMWGGGSTDYSTSVKGRFTISKDNAKTSVYLQMSSLRAEDTAVYYCVRTDGDYWGQGTLVTVSS VL: DIVMTQSPLSLPVTPGQPASISCRSSQSLASSQGNTYLHWYLQKPGQSPRLLIYKVSNRFSGVPDRFSGSGSGTDFTLKISRVEAEDVGVYYCSQSTHVPWTFGGGTKLEIKR
	binds	binds	PG102_Var15 (antibody, human IgG4 S228P, kappa, V domains shown, IgG4pro(deltaK)/kappa; also called FFP104_Var15) VH: QVQLQESGPGLVKPSQTLSLTCTVSGFSLSRYSVYWVRQPPGKGLEWIGMMWGGGSTDYNPSLKSRLTISKDTSKSQVSLKLSSLTAADTAVYYCVRTDGDYWGQGTLVTVSS VL: DIVMTQSPLSLPVTPGQPASISCRSSQSLASSQGNTYLHWYLQKPGQSPRLLIYKVSNRFSGVPDRFSGSGSGTDFTLKISRVEAEDVGVYYCSQSTHVPWTFGGGTKLEIKR
